According to US20230220078A1 (NAVI BIO THERAPEUTICS, published 2023):
Results are given in words; binding and its absence hold for the method and conditions named. Some results given as binding are weak or reduced against the parent protein; the word gives no strength.

Protein sequences, listed by entry. Tags and fused reporters are not part of them. Lines headed by an entry give the natural chain unless they say otherwise; changes in a name come on top. Residues count along the entry.
UniProt Q96NY8: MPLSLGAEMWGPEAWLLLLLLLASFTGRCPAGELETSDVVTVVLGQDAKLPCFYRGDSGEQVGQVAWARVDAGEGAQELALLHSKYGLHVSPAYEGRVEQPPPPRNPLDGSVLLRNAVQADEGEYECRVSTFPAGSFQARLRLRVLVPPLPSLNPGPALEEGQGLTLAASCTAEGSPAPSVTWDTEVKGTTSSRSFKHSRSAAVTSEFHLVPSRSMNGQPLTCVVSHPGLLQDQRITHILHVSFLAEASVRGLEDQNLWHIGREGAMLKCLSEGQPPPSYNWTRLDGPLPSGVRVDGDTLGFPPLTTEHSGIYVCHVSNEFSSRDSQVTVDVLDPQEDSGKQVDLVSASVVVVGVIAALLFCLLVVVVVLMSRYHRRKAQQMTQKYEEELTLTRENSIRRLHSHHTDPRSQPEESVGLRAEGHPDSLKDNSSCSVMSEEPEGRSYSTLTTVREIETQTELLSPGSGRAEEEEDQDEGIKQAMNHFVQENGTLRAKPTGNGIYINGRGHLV
BML01-nectin4: residues 32-510 of Q96NY8
PVRL4_864 (94-957, 864 bps, r864p) recombinant fragment of Nectin-4 (PVRL4_HUMAN): residues 32-319 of Q96NY8
r639p: residues 32-244 of Q96NY8

Key:
[1] = biological target: PVRL4_864 (94-957, 864 bps, r864p) recombinant fragment of Nectin-4 (PVRL4_HUMAN) (human) (UniProt Q96NY8); assay: western blot of PVRL4 864 probed with purified scFv
r639p (human) = r639p (human) (UniProt Q96NY8); assay: western blot of r342p, r639p and r864p (lanes 1-3), scFv S21 20 µg/ml
BML01-nectin4 (human) [2] = biological target: BML01-nectin4 (human) (UniProt Q96NY8); assay: cell-based ELISA with phage clones, ratio of OD on BML01-nectin4 to OD on BML01
BML01-nectin4 (human) [3] = biological target: BML01-nectin4 (human) (UniProt Q96NY8); assay: flow cytometry, 20 µl candidate phage clone on 1x10^5 cells, detected with anti-HA antibody [Cont.]
BML01-nectin4 (human) [4] = biological target: BML01-nectin4 (human) (UniProt Q96NY8); assay: cell-based ELISA, 50 µl candidate phage culture on BML01-nectin4 and BML01 cells, anti-M13-HRP detection

B1: S2 (scFv)
scFv (VH and VL joined by a linker; order and linker not stated for this clone): TVTLDESGGGLQTPGGGLSLVCKGSGFTFSSNGMAWVRQAPGKGLEFVGGVNAAGSWTGYGAAVKGRATISRDNGQSTVRLQLNDLRAEDTGTYYCAKTADDWYGADDIDAWGHGTEVIVSSALTQPSSVSANPGETVEVTCSGDDSRYYGWYQQKSPGSAPVTVIYYNDKRPSDIPSRFSGSKSGSTGTLTITGVQAEDEAVYFCGAYDSTTHSGSAFGAGTTLTVL
- binding [1]: binds

B2: NECTIN4-scFv-S21 (scFv, V domains shown)
VH: AVTLDESGGGLQTPGGALSLVCKASGFTFSSYAMMWVRQAPGKGLEYIAGIRSDGRYTYYGAAVKGRATISRDNGQSTVRLQLNNLRAEDTGTYYCAKSGVTDTSSSTYSSASNIDAWGHGTEVIVSS
VL: ALTQPSSVSANLGGTVKITCSGGSGSYGWYQQKSPGSAPVTLIYANTNRPSDIPSRFSGSKSGSTSTLTITGVQAEDVAVYYCGSRDSSYVGIFGAGTTLTVL
notes: Chicken-derived scFv from a pComb3X phage library, tested as purified scFv; also called anti-PVRL4 scFv S21; NECTIN4-scFv-521
- binding (r639p (human)): binds

B3: S8 (scFv)
scFv (VH and VL joined by a linker; order and linker not stated for this clone): TVTLDESGGGLQTPGGGLSLVCKASGFTFNDYGMGWMRQAPGKGLEWVAGISGSGSYTDYGAAVKGRAIISRDNGQSTVRLQLNNLRAEDTGTYVCAKGSNSAYPDAADIDAWGHGTEVIVSSALTQPSSVSANLGGTVEITCSGGSGYGYGWYQQKSPGSAPVTVIYSNDKRPSDIPSRFSGSASGSTATLTITGVRAEDEAVYFCGGYDSSASYVGIFGAGTTLTVL
- binding (BML01-nectin4 (human) [2]): binds
- binding (BML01-nectin4 (human) [3]): binds
- binding (BML01-nectin4 (human) [4]): binds
